{
  "source": "patent US20150306081A1",
  "about": "“Chemotherapy for Drug-Resistant Cancer Cells” (THE UNIVERSITY OF SYDNEY, priority 2012, published 2015)",
  "key": {"[1]": {"system": "KBV1 cells", "experiment": "Lysosomal integrity, acridine orange flow cytometry, KBV1 cells", "assay_type": "cell-based, Human", "settings": "30 min incubation", "description": "Lysotracker® red (Life Technologies) and acridine orange (Sigma-Aldrich) are dyes showing high specificity for lysosomes and were used to determine lysosomal membrane permeability (LMP). The Lysotracker® red was visually assessed by fluorescence microscopy utilizing a Zeiss Axio Observer.Z1 Fluorescence Microscope equipped with an AxioCam camera (Zeiss, Oberkochen, Germany) and acridine orange was quantified by flow cytometry (see below).\nBriefly, cells were incubated with Lysotracker® red (50 nM) for 15 min/37° C. or acridine orange (20 nM) for 15 min/37° C., washed on ice 3 times with ice-cold PBS and then incubated with Cu[Dp44mT] (25 μM) for 30 min/37° C. or Dp44mT alone (25 μM) for 30 min or 24 h/37° C.\n(§1) The dyes, Rh123 and acridine orange were detected with the FACS Canto flow cytometer (BD Biosciences) and 10,000 events were acquired for every sample. Data analysis was performed using FlowJo software, version 7.5.5 (Tree Star Inc., Ashland, OR)."}, "[2]": {"experiment": "Redox studies: oxidation of H2DCF, cell-free", "settings": "5 μM, acetate buffer pH 5", "description": "These studies were conducted in an acetate buffer (150 mM; pH 5) containing cysteine (100 μM) to mimic lysosomal conditions. In these experiments, hydrogen peroxide (100 μM) was added to initiate ROS generation."}, "[3]": {"system": "non-Pgp expressing KB31 cells", "experiment": "Rhodamine 123 accumulation assay, KB31 cells", "assay_type": "cell-based, Human", "settings": "increased concentrations", "description": "Cells were then harvested and resuspended in ice-cold PBS and kept on ice until flow cytometric analysis (see below).\nas §1"}},
  "note": "For at least one compound, name, drawing or mass did not settle the structure.",
  "data": [
    {"smiles": "C/C=C/C[C@@H](C)C(=O)[C@H]1C(=O)N[C@@H](C(C)C)C(=O)N(C)CC(=O)N(C)[C@@H](CC(C)C)C(=O)N[C@@H](C(C)C)C(=O)N(C)[C@@H](CC(C)C)C(=O)N[C@@H](C)C(=O)N[C@H](C)C(=O)N(C)[C@@H](CC(C)C)C(=O)N(C)[C@@H](CC(C)C)C(=O)N(C)[C@@H](C(C)C)C(=O)N1C", "note": "[Val, Valspodar]", "values": [
      {"measurement": "lysosomal integrity (acridine orange)", "setting": "[1]", "result": "did not compromise lysosomal integrity"},
      {"measurement": "effect on redox activity / ROS generation of Cu[Dp44mT]", "setting": "[2]", "result": "not able to prevent the redox activity"},
      {"measurement": "effect on Rh123 accumulation", "setting": "[3]", "result": "no significant effect on Rh123 accumulation"}
    ]}
  ]
}
